According to the supplement of paper PMC8256030:
Values joined by “and” are separate entries in the source; they are usually repeats but may differ in a detail not shown here. Equal values may be shown once. Where a name gives a salt, the structure may show the parent alone. The list shows a part of the results. Single values are uncertain here, since repeats match poorly.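 HEK293T cells were given each compound shortly before transfection with a reporter in which red mCherry is followed by the SARS-CoV-2 frameshift element and then GFP in the −1 frame, so GFP appears only after frameshifting.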

Key:
HEK293T = experiment: percent viability (nuclei count) relative to control; higher = more viable cells; conditions: 10 µM; 24 h
[1] = tested on: SARS-CoV-2 -1 PRF reporter mCherry-FSE-GFP(-1); experiment: mCherry (red) intensity as percent of control; higher = higher upstream reporter expression; conditions: 10 µM; 24 h; HEK293T
[2] = tested on: SARS-CoV-2 -1 PRF reporter mCherry-FSE-GFP(-1); experiment: percent effect, decrease of GFP/mCherry ratio (-1 PRF reporter) relative to controls; higher = stronger frameshift inhibition; conditions: 10 µM; 24 h; HEK293T

SMILES | percent viability (HEK293T) | mCherry [1] | percent effect [2]
CCCN1C[C@H](CSC)C[C@@H]2c3cccc4[nH]cc(c34)C[C@H]21 [pergolide] | 200% and 252% | 95.6% and 111% | -1.36% and -5.49%
c1ccc(C2(c3ccccc3)CC2C2=NCCN2)cc1 (stereo not drawn) [cibenzoline] | 132% | 80.1% | 1.11%
CCC1(C2=NCCN2)Cc2ccccc2O1 (stereo not drawn) [efaroxan] | 148% | 99.9% | -1.58%
C=C[C@]1(O)CC[C@H]2[C@@H]3CCC4=CC(=O)CC[C@@H]4[C@H]3CC[C@@]21C [norvinisterone] | 79.7% | 92.8% | -4.13%
Clc1ccc(OC[C@H]2CCN2)cn1 [tebanicline] | 250% | 107% | -6.19%
COC(=O)[C@@H]1[C@H]2CC[C@@H](C[C@@H]1O)N2C | 249% | 84.1% | 0.135%
CCNC1C2CCC(C2)C1c1ccccc1 (stereo not drawn) [fencamfamin] | 245% | 87.4% | -2.26%
COC(=O)[C@H]1[C@@H](OC(=O)c2ccccc2)C[C@@H]2CC[C@H]1N2C [Cocaine] | 318% | 80.7% | -5.48%
CN1C(=O)CC(=O)N(c2ccccc2)c2cc(Cl)ccc21 [clobazam] | 170% | 69.6% | -8.58%
CN1CCN(C(=O)O[C@H]2c3nccnc3C(=O)N2c2ccc(Cl)cn2)CC1 [eszopiclone] | 159% | 86.9% | -5.21%
CNC(=O)Oc1ccc2c(c1)[C@]1(C)CCN(C)[C@@H]1N2C | 109% | 104% | -4.64%
C[C@]12CCC(=O)C=C1C=C[C@@H]1[C@@H]2CC[C@@]2(C)[C@H]1CC[C@@]2(O)CCC(=O)O [Potassium Canrenoate] | 245% | 76.4% | -3.38%
CN1C[C@@H](NS(=O)(=O)N(C)C)C[C@@H]2c3cccc4c3c(cn4C)C[C@H]21 [mesulergine] | 318% | 83.6% | -2.89%
CN1[C@H]2CC[C@@H]1[C@@H](C(=O)O)[C@@H](OC(=O)c1ccccc1)C2 | 129% | 92.3% | -7.85%
CN1CCCC(=C(c2cccs2)c2cccs2)C1 [tipepidine] | 175% | 84.5% | -4.31%
CN1C[C@H](C(=O)N[C@]2(C)O[C@@]3(O)[C@@H]4CCCN4C(=O)[C@H](Cc4ccccc4)N3C2=O)C[C@@H]2c3cccc4[nH]cc(c34)C[C@H]21 | 172% | 96% | -1.25%
CCCC(C(=O)c1ccc(C)cc1)N1CCCC1 (stereo not drawn) [pyrovalerone] | 174% | 73.7% | -5.83%
CNC(=O)Oc1ccc2c(c1)[C@]1(C)CCN(C)[C@@H]1N2C [Physostigmine sulfate] | 267% | 88.1% | 2.09%
CC(=O)O[C@H]1C[C@H](O[C@H]2[C@@H](O)C[C@H](O[C@H]3[C@@H](O)C[C@H](O[C@H]4CC[C@@]5(C)[C@H](CC[C@@H]6[C@@H]5C[C@@H](O)[C@]5(C)[C@@H](C7=CC(=O)OC7)CC[C@]65O)C4)O[C@@H]3C)O[C@@H]2C)O[C@H](C)[C@H]1O[C@@H]1O[C@H](CO)[C@@H](O)[C@H](O)[C@H]1O [lanatoside C] | 4.03% | 13.8% | -15.9%
c1ccc(C2(c3ccccc3)OC[C@H]([C@@H]3CCCCN3)O2)cc1 [dexoxadrol] | 326% | 113% | -3.1%
NC1=NCC(c2ccc(Cl)cc2)O1 (stereo not drawn) [clominorex] | 272% | 92.7% | -2.93%
CCCC(Cc1ccccc1)N1CCCC1 (stereo not drawn) [prolintane] | 195% | 63.3% | -2.57%

Part of the list above, comma-delimited:
SMILES,percent viability (HEK293T),mCherry [1],percent effect [2]
c1ccc(C2(c3ccccc3)CC2C2=NCCN2)cc1 (stereo not drawn) [cibenzoline],132%,80.1%,1.11%
Clc1ccc(OC[C@H]2CCN2)cn1 [tebanicline],250%,107%,-6.19%
CCNC1C2CCC(C2)C1c1ccccc1 (stereo not drawn) [fencamfamin],245%,87.4%,-2.26%
CN1CCCC(=C(c2cccs2)c2cccs2)C1 [tipepidine],175%,84.5%,-4.31%

Additional results follow:

SMILES | percent viability (HEK293T) | mCherry [1] | percent effect [2]
[O-][n+]1ccccc1[S-].[O-][n+]1ccccc1[S-].[Zn+2] | 82.1% | 70.3% | -8.07%
Cc1cc(C)cc(C(=O)O[C@H]2C[C@H]3CC[C@@H](C2)N3C)c1 [tropanserin] | 99.7% | 105% | -0.436%
CN(C)[C@@H]1C(=O)C(C(N)=O)=C(O)[C@@]2(O)C(=O)C3=C(O)c4c(O)cccc4[C@@](C)(O)[C@H]3[C@H](O)[C@@H]12 [oxytetracycline] | 106% | 90.1% | -0.608%
CC(C)(C)NCC(O)c1ccc(O)c(O)c1 (stereo not drawn) [colterol] | 147% | 104% | -1.61%
c1ccc2c(c1)sc1ccccc12 | 120% | 102% | -1.69%
Cc1cccc([C@H](C)c2c[nH]cn2)c1C [Precedex] | 141% | 83.9% | -6.89%
CN1CCN=C(c2ccccc2)c2cc(Cl)ccc21 [medazepam] | 314% | 89.3% | -3.7%
CN(C)C(=O)Oc1cc(OC(=O)N(C)C)cc(C(O)CNC(C)(C)C)c1 (stereo not drawn) [bambuterol] | 364% and 213% | 108% and 98.1% | -0.83% and -1.2%
CC(C)C[C@H]1C(=O)N2CCC[C@H]2[C@]2(O)O[C@](NC(=O)[C@@H]3C=C4c5cccc6[nH]c(Br)c(c56)C[C@H]4N(C)C3)(C(C)C)C(=O)N12 [Bromocriptine mesylate] | 283% | 53.6% | -1.43%
CN=C1CN(O)C(c2ccccc2)=c2cc(Cl)ccc2=N1 [chlordiazepoxide] | 175% | 93.8% | 1.99%
CCCOC(=O)Cc1ccc(OCC(=O)N(CC)CC)c(OC)c1 [propanidid] | 466% | 61.6% | -0.373%
O=C(N/N=C/c1ccc([N+](=O)[O-])o1)c1cc([N+](=O)[O-])cc([N+](=O)[O-])c1O | 54.9% | 120% | -0.526%
CC(C)=CC1C(C(=O)OCN2C(=O)C3=C(CCCC3)C2=O)C1(C)C (stereo not drawn) [tetramethrin] | 337% | 110% | 2.43%
CNC(C)(C)Cc1ccccc1 [mephentermine] | 279% | 124% | 3.69%
CC[C@H](C(N)=O)N1CCCC1=O [(R)-(+)-Etiracetam] | 253% | 104% | -2.45%
CC(C)C[C@H]1C(=O)N2CCC[C@H]2[C@]2(O)O[C@](NC(=O)[C@@H]3C=C4c5cccc6[nH]c(Br)c(c56)C[C@H]4N(C)C3)(C(C)C)C(=O)N12 [bromocriptine] | 85.8% | 93.3% | -5.82%
FC(F)(F)c1cccc(C2=CCN(CCc3ccc4ccccc4c3)CC2)c1 [xaliproden] | 134% | 73.9% | -7.9%
COP(=S)(OC)Oc1ccc(Sc2ccc(OP(=S)(OC)OC)cc2)cc1 [temefos] | 177% | 89.3% | 0.928%
CCOC(=O)c1ncn2c1CN(C)C(=O)c1c(I)cccc1-2 [iomazenil (123I)] | 107% | 87.8% | -0.353%
CN1CC[C@]23CCCC[C@H]2[C@H]1Cc1ccc(O)cc13 [levorphanol] | 325% | 105% | -1.69%
CC(C)(N)Cc1ccccc1 [phentermine] | 229% | 94.4% | -4.02%
CC[C@@H](CO)NC(=O)[C@@H]1C=C2c3cccc4c3c(cn4C)C[C@H]2N(C)C1 [Methysergide maleate] | 99.3% | 87.4% | -1.14%

SMILES | percent viability (HEK293T) | mCherry [1] | percent effect [2]
COP(=S)(OC)Oc1cc(Cl)c(Br)cc1Cl [bromofos] | 154% | 100% | -1.75%
COc1cc2c(c(OC)c1OC)-c1ccc(OC)c(=O)cc1[C@@H](NC(C)=O)CC2 [Colchicine] | 20.4% | 101% | -12.9%
c1ccc2c(c1)OCC(C1=NCCN1)O2 (stereo not drawn) | 102% | 79.4% | -2.99%
Cc1ncc2n1-c1ccc(Cl)cc1C(c1ccccc1F)=NC2 [midazolam] | 110% | 93.8% | -3.02%
CCC1(c2ccccc2)C(=O)NC(=O)N(C(=O)c2ccccc2)C1=O (stereo not drawn) [benzobarbital] | 118% | 109% | 1.42%
CCC1C(C)=NN=C(c2ccc(OC)c(OC)c2)c2cc(OC)c(OC)cc21 (stereo not drawn) [tofisopam] | 69.6% | 109% | -6.23%
CCn1cc(C(=O)O)c(=O)c2cc3c(cc21)OCO3 [oxolinic acid] | 335% | 131% | 1.09%
CC[C@@H](CO)NC(=O)[C@@H]1C=C2c3cccc4[nH]cc(c34)C[C@H]2N(C)C1 [methylergometrine] | 135% | 112% | -5.34%
CN(C)[C@@H]1C(=O)C(C(N)=O)=C(O)[C@@]2(O)C(=O)C3=C(O)c4c(O)cccc4[C@@](C)(O)[C@H]3C[C@@H]12 [tetracycline] | 117% | 89% | -4.39%
O=C([O-])Cc1ccccc1.[Na+] [Sodium Phenylacetate] | 107% | 78.8% | -5.77%
O=[N+]([O-])c1ccc([As](=O)(O)O)cc1 [nitarsone] | 176% | 102% | -0.801%
C[C@@H]1CC[C@H]2[C@@H](C)C(=O)O[C@@H]3O[C@@]4(C)CC[C@@H]1[C@]32OO4 [Artemisinin] | 193% | 72% | -3.55%
C[C@@H]1C[C@@H]([C@H](O)CC2CC(=O)NC(=O)C2)C(=O)[C@@H](C)C1 [cicloheximide] | 25.2% | 17.5% | -12.4%
CCC1(CCC(C)C)C(=O)NC(=O)NC1=O [amobarbital] | 223% | 95.5% | -1.22%
Cl[C@H]1[C@H](Cl)[C@@H](Cl)[C@@H](Cl)[C@H](Cl)[C@H]1Cl | 117% | 116% | 2.02%
CCn1nc(C)c2c1C(c1ccccc1)=NCC(=O)N2 [ripazepam] | 114% | 91.5% | -6.37%
Nc1nc(N)nc(NC2CC2)n1 [cyromazine] | 154% | 116% | 0.316%
CC(Cc1ccccc1)NCCC#N (stereo not drawn) [fenproporex] | 66.8% | 112% | 5.76%
C=CCN1CC[C@]23CCCC[C@H]2[C@H]1Cc1ccc(O)cc13 [levallorphan] | 134% | 65.4% | 1.33%
O=c1cccc2n1C[C@@H]1CNC[C@H]2C1 [Cytisine] | 234% | 92.2% | -0.000937%
CN1CCc2cc3c(cc2C1O)OCO3 (stereo not drawn) | 308% | 131% | -1.36%
CNc1ccc(C(=O)CC(O)CCC(C)C2OC(=O)CC(O)CC(=O)CC(O)CC(O)CC(O)CC(O)CC3(O)CC(O)C(C(=O)OC)C(CC(O[C@@H]4O[C@H](C)[C@@H](O)[C@H](N)[C@@H]4O)/C=C/C=C/C=C/C=C/C=C/C=C/C=C/C2C)O3)cc1.COC(=O)C1C(O)CC2(O)CC(O)CC(O)CC(O)CC(O)CC(=O)CC(O)CC(=O)OC(C(C)CCC(O)CC(=O)c3ccc(N)cc3)C(C)/C=C/C=C/C=C/C=C/C=C/C=C/C=C/C(O[C@@H]3O[C@H](C)[C@@H](O)[C@H](N)[C@@H]3O)CC1O2 (stereo partly drawn) | 237% | 78.3% | -1.83%
